According to patent publication US11174243B2, “Succinate forms and compositions of Bruton's tyrosine kinase inhibitors” (Sunesis Pharmaceuticals, Inc., priority 2016, dated 2021):
At least one compound was matched to its structure with a doubt left.

Protein sequences, listed by entry. Tags and fused reporters are not part of them. Lines headed by an entry give the natural chain unless they say otherwise; changes in a name come on top.
UniProt Q06187: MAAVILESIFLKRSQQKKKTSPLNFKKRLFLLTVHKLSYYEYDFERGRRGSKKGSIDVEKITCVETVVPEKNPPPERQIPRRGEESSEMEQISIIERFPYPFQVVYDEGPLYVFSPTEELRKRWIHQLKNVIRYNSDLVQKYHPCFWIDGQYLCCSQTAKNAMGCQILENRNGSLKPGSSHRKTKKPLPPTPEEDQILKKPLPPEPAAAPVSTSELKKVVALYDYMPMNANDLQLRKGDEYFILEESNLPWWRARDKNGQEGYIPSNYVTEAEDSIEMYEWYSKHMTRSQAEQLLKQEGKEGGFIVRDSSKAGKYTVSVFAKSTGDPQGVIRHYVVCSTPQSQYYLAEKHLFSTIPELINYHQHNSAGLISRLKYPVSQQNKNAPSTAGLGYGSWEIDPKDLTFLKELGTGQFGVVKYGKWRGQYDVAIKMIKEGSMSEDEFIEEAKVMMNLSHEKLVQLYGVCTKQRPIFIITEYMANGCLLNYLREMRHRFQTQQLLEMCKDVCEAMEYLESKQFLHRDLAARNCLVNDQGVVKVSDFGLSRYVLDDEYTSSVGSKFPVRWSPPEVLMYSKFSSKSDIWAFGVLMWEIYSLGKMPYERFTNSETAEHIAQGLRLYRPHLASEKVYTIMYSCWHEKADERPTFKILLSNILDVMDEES

Columns and labels:
BTK [1] = biological target: T1, BTK (Homo sapiens, UniProt Q06187); assay: Immunoblot for BTK phosphorylation in primary patient CLL cells; assay type: cell-based; set-up: from tissue; host or cells: human whole blood
WT BTK = WT BTK (Homo sapiens, UniProt Q06187); assay: Immunoblot of BTK and ERK phosphorylation, XLA cells transfected with WT BTK; assay type: cell-based; set-up: expressed in transfected cells; host or cells: XLA cell lines; conditions: XLA cells transfected with WT BTK; 1 μM
BTK [2] = biological target: T1, BTK; assay: In vitro kinase assay, BTK
[3] = GVS (hygroscopicity) of scaled-up Form 1 material; assay type: physicochemical; conditions: Form 1 material from isopropyl acetate scale up, FIG. 3

SMILES: NC(=O)[C@H]1CCN(c2ncnc(N)c2F)C[C@@H]1N1CCC[C@@H](Nc2cc(Cl)cc(C(F)(F)F)c2)C1=O [Compound 1, (3R,3′R,4′S)-1′-(6-amino-5-fluoropyrimidin-4-yl)-3-((3-chloro-5-(trifluoromethyl)phenyl)amino)-2-oxo-[1,3′-bipiperidine]-4′-carboxamide]
- inhibition of BTK (BTK phosphorylation, immunoblot) (BTK [1]): dose-dependent inhibition of BTK in primary patient CLL cells comparable to ibrutinib
- inhibition of BTK and ERK phosphorylation (immunoblot) (WT BTK): comparable to that of ibrutinib
- concentrations inhibiting BTK activity (BTK [2]): subnanomolar concentrations

SMILES: NC(=O)[C@H]1CCN(c2ncnc(N)c2F)C[C@@H]1N1CCC[C@@H](Nc2cc(Cl)cc(C(F)(F)F)c2)C1=O [Compound 2]
- hygroscopicity (GVS pattern) [3]: does not highlight increased hygroscopicity
